{
  "sequences": {"note": "The chains behind the UniProt entries cited, without tags or fusion partners.", "UniProt Q9NZI8": "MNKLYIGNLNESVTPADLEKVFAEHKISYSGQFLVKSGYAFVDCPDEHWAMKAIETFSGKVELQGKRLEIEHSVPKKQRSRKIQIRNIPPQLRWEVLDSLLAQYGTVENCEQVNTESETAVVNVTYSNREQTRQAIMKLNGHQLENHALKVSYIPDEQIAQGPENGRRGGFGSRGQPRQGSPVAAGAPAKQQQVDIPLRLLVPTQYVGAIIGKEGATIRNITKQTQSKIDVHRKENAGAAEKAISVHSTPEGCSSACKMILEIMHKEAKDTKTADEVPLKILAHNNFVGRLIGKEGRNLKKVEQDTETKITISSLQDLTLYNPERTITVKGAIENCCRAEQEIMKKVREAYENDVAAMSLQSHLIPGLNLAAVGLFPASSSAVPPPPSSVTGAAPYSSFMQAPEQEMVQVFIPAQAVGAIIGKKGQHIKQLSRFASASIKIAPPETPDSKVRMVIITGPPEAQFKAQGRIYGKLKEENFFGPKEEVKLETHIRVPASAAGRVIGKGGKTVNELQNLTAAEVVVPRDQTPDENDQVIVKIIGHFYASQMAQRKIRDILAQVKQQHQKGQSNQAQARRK", "UniProt A5YKK6": "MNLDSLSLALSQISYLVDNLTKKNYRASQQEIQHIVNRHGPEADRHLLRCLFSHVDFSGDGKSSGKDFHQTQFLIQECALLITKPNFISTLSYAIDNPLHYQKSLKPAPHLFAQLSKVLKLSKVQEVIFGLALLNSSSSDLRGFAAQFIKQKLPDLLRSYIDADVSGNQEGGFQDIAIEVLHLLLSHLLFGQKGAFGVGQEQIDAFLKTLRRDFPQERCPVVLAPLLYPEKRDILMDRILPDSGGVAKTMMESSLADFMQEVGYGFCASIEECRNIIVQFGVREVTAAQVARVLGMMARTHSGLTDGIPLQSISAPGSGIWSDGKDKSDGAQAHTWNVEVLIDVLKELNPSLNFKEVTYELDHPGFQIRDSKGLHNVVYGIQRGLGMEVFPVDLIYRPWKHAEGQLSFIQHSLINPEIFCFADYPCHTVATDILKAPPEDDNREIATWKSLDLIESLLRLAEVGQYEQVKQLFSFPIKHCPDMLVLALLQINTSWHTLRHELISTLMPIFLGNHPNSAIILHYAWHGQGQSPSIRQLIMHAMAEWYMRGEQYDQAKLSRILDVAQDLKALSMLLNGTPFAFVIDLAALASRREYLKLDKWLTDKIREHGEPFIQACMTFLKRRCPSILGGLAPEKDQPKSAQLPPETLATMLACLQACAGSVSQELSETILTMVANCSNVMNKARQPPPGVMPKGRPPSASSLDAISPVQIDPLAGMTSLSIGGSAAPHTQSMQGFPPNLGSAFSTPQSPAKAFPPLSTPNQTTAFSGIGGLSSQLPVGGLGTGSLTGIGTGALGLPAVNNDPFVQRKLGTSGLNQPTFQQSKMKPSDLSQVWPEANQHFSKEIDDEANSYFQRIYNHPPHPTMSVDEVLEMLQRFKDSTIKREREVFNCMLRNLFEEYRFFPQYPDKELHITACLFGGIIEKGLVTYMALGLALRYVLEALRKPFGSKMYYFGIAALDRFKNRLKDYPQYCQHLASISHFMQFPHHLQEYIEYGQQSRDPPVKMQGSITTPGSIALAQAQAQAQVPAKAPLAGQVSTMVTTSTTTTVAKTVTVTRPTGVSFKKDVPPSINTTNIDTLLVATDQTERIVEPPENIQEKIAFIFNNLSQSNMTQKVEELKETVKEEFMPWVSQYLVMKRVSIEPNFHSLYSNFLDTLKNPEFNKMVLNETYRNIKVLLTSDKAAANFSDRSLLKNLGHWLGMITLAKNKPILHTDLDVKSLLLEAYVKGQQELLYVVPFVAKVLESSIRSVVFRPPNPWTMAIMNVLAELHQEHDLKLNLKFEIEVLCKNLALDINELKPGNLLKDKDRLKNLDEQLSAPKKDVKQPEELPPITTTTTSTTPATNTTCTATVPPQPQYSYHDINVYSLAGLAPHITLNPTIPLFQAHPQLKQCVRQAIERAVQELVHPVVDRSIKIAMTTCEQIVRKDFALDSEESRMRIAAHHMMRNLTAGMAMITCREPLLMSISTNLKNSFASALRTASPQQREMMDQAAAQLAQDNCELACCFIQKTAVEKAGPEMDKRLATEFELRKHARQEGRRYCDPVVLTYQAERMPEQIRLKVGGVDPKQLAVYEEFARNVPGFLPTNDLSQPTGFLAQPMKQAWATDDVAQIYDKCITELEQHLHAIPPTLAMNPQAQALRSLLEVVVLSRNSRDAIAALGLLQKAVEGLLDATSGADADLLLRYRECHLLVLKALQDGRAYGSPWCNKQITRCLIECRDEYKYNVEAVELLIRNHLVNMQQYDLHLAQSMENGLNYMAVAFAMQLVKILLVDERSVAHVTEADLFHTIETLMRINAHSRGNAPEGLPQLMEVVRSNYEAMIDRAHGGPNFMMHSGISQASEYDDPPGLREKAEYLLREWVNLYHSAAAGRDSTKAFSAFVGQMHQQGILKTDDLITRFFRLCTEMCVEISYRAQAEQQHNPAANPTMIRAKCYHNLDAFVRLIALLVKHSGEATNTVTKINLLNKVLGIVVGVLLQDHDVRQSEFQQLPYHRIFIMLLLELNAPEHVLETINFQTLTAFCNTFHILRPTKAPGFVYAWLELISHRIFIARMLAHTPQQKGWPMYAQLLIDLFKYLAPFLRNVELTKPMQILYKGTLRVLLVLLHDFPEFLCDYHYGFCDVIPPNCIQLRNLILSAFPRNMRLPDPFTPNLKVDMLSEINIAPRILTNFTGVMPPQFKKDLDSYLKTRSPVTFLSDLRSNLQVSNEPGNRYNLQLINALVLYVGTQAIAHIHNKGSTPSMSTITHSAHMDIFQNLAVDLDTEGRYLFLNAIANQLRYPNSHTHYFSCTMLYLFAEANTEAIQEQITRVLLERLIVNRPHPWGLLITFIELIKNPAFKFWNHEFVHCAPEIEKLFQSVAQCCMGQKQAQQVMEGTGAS"},
  "source": "paper PMC5907460",
  "molecular_target": "Flag-tagged IMP1-GFP (insulin-like growth factor 2 messenger RNA binding protein, IMP1) (UniProt Q9NZI8)",
  "experiment": "co-IP; immunoprecipitation with GFP antibody on protein A agarose from lysates of MDA231/IMP1-GFP and MDA231/GFP cells (20 mM Tris-HCl pH 7.5, 50 mM NaCl, 5 mM MgCl2, 0.5% NP-40, with RNasin, 4 °C, 4 h); CNOT1 detected by immunoblot",
  "note": "No constants are given. Whether binding was seen depends on the method and setting. Binding seen in cells or lysates may run through a third protein. Some results given as binding are weak or reduced against the parent protein; the word gives no strength.",
  "data": [
    {"substance": "CNOT1, a scaffold protein of the CCR4-NOT complex (from UniProt A5YKK6 1-2376)", "values": [
      {"measurement": "binding", "result": "binds"}
    ]}
  ]
}
